This is one part of the list.
What was measured:
Experiment in all cases: glycan array binding signal (z-score within array); higher = stronger binding
Details in all cases: glycan notation: IUPAC condensed, linker removed
[1] = target: Gal(b1-4)GlcNAc(b1-6)GalNAc
Method in brief: (§1)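 The Consortium for Functional Glycomics database supplied 3228 glycan arrays, of which those lacking an available protein sequence were dropped. The binding signal, a within-array Z-score, was averaged across arrays of the same protein sequence and across linkers. Negative scores can be read as non-binding.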

[2] = target: Gal(b1-4)GlcNAc(b1-6)[Gal(b1-3)]GalNAc
Method in brief: as §1

[3] = target: Gal(b1-4)GlcNAc(b1-6)[Gal(b1-4)GlcNAc(b1-3)]GalNAc
Method in brief: as §1

Gal(b1-4)GlcNAc6P = target: Gal(b1-4)GlcNAc6P
Method in brief: as §1

Gal(b1-6)Gal = target: Gal(b1-6)Gal
Method in brief: as §1

Gal3S(b1-3)GalNAc = target: Gal3S(b1-3)GalNAc
Method in brief: as §1

Gal3S(b1-3)GlcNAc = target: Gal3S(b1-3)GlcNAc
Method in brief: as §1

[4] = target: Gal3S(b1-3)[Fuc(a1-4)]GlcNAc
Method in brief: as §1

Gal3S(b1-4)Glc = target: Gal3S(b1-4)Glc
Method in brief: as §1

Gal3S(b1-4)Glc6S = target: Gal3S(b1-4)Glc6S
Method in brief: as §1

Gal3S(b1-4)GlcNAc = target: Gal3S(b1-4)GlcNAc
Method in brief: as §1

[5] = target: Gal3S(b1-4)[Fuc(a1-3)]Glc6S
Method in brief: as §1

[6] = target: Gal3S(b1-4)[Fuc(a1-3)]GlcNAc
Method in brief: as §1

[7] = target: Gal3S(b1-4)[Fuc(a1-3)]GlcNAc6S
Method in brief: as §1

Gal3S4S(b1-4)GlcNAc = target: Gal3S4S(b1-4)GlcNAc
Method in brief: as §1

Gal3S6S(b1-4)GlcNAc = target: Gal3S6S(b1-4)GlcNAc
Method in brief: as §1

Gal3S6S(b1-4)GlcNAc6S = target: Gal3S6S(b1-4)GlcNAc6S
Method in brief: as §1

Gal4S(b1-4)GlcNAc = target: Gal4S(b1-4)GlcNAc
Method in brief: as §1

Gal4S6S(b1-4)GlcNAc = target: Gal4S6S(b1-4)GlcNAc
Method in brief: as §1

Gal6P(b1-4)GlcNAc = target: Gal6P(b1-4)GlcNAc
Method in brief: as §1

Gal6S(b1-3)GlcNAc = target: Gal6S(b1-3)GlcNAc
Method in brief: as §1

Gal6S(b1-3)GlcNAc6S = target: Gal6S(b1-3)GlcNAc6S
Method in brief: as §1

Gal6S(b1-4)Glc = target: Gal6S(b1-4)Glc
Method in brief: as §1

B1: Awp3 (Candida glabrata), B4UN32 (protein)
chain: MISFVTLLAILGLLSISWADQTVRSVAGDQRVTDPVIVGDNSILDYYGGSNYDFSNNFEIGRGTLYIGKESYFSSFQSAPTDVPNSFHLLIKNTNNLQNNGQFIIENIKRHANQCSNSSIQVFPINFQNDGEFEIISGGVEGRCCLPTSVIAPQNFLNNGKFYYKVLTDTGSIYSGSCMQNVDIGASTTTTVNNNLWEFTGSINAQINGAVSGAAQINLDGSNMFVNANTFSGQVVNLINGGSFLQTSDPLSNIVVINGLGTSDTGVTSIAVKGKGKSFTYNPSSGIVKLTTVEGKTYAYQIGCGYNTKKFITNNDSGASYESADNFFVLTYSEPYSPQTCQLENSSIFSSNFISTSTSSSSSSSSASSLPSSMSSSLPSSLSSSLSSSLSSSMSSSMSSLFIIPPPYTTTRSSGSSIIDTEIVSFYSTTDSPGHTITGTTTTTLYGPHTHSSVSTPSSSSESSTTSNSSIESSSLPHTSVSSTPESSITPSSNTISSSPTSDFSSVQSSSIMESSSVVASSSVINSSSIVDSSSSSASSLPSSMSSSLSSSMSSSLPSSMSSSLSSSLSSSLSSSMSSSMSSLFIIPPPYTTTRSSGSSIIDTEIVSFYSTTDSPGHTITGTTTTTLYGPHTHSSVSTPSSSSESSTTSNSSIESSSLPHTSVSSTPESSITPSSNTISSSPTSDFSSVQSSSIMESSSVVASSSVINSSSIVDSSSSSASSLPSSMPSSLPSSMSSSLSSSMSSSLSSSLSSSLSSSMSSSMSSLFIIPPPYTTTRSSGSSIIDTEIVSFYSTTDSPGHTITGTTTTTLYGPHTHSSVSTPSSSSESSTTSNSSIESSSLPHTSVSSTPESSITPSSNTISSSPTSDFSSVQSSSIMESSSVVASSSATQSSSVINSSSIVDSSSSSASSLPSSMPSSLPSSLSSSLSSSLSSSMSSSMSSLFIIPPPYTTTRSSGSSIIDTEIVSFYSTTDSPGHTITGTTTTTLYESSIYSSSSSTIQESELSNTSRTTMTSNSSVSISSTSSRSSFSNTKSSTIVISQSASLPDSKTDIILSTSSNIGYSSRSLLSDLGTSISDSDIHHSVLHSTESYSSNESGTNPFTSIASLSNFIPESSSHTSTALGSENSVISSDILTTMSHPVATNSGDKPTTPKRSEQVSTTMTSSGPTPDTSSFDTDGMSAYSRPEFTTNSLEVNKSSTSQLGNNKQTFSNLQLESTRPHSENEVDNNTRLLQSIQQSSTYGTNNVNPLSPTGSISIPLTEDGQGDNNNWNSPATNDLCTQISFNLTATTITVTDRITITDSIHDISSEVITSYIYQTIVDQKTVTQTVDGKSLANKMSSIPKPSSRSLIQPQPPVAIELQEGAASTSRVSLVSLFISIILVLL
glycan array binding signal (z-score) [1]: 0.922 | glycan array binding signal (z-score) [2]: 0.182 | glycan array binding signal (z-score) [3]: -1.13 | glycan array binding signal (z-score) (Gal(b1-4)GlcNAc6P): -0.775 | glycan array binding signal (z-score) (Gal(b1-6)Gal): -1.2 | glycan array binding signal (z-score) (Gal3S(b1-3)GalNAc): -0.471 | glycan array binding signal (z-score) (Gal3S(b1-3)GlcNAc): -0.178 | glycan array binding signal (z-score) [4]: 0.656 | glycan array binding signal (z-score) (Gal3S(b1-4)Glc): -0.288 | glycan array binding signal (z-score) (Gal3S(b1-4)Glc6S): 0.567 | glycan array binding signal (z-score) (Gal3S(b1-4)GlcNAc): 0.034 | glycan array binding signal (z-score) [5]: -0.179 | glycan array binding signal (z-score) [6]: -1.29 | glycan array binding signal (z-score) [7]: 0.138 | glycan array binding signal (z-score) (Gal3S4S(b1-4)GlcNAc): -1.97 | glycan array binding signal (z-score) (Gal3S6S(b1-4)GlcNAc): -0.19 | glycan array binding signal (z-score) (Gal3S6S(b1-4)GlcNAc6S): 0.735 | glycan array binding signal (z-score) (Gal4S(b1-4)GlcNAc): 0.542 | glycan array binding signal (z-score) (Gal4S6S(b1-4)GlcNAc): 0.372 | glycan array binding signal (z-score) (Gal6P(b1-4)GlcNAc): -0.735 | glycan array binding signal (z-score) (Gal6S(b1-3)GlcNAc): 0.328 | glycan array binding signal (z-score) (Gal6S(b1-3)GlcNAc6S): -0.952 | glycan array binding signal (z-score) (Gal6S(b1-4)Glc): -0.705

— the supplement of paper PMC8728848
